Data reported in PubChem BioAssay AID485298 (National Center for Advancing Translational Sciences (NCATS), 2010).
Hit rate of the full screen: of about 320,000 compounds, about 740 (0.23%) were called active. The shares of active, inactive and inconclusive entries below differ from those in the screen. Calls come from the whole dose curve; as a rule, active = well fitted activation curve with a large enough effect; inconclusive = small, poorly fitted or top-dose-only effect; inactive = no such curve, though single readings can be large or run the other way. Potencies beside an inconclusive call are fits to weak or partial responses and may not hold up.

Experiment: qHTS Assay for Small Molecule Inhibitors of Mitochondrial Division or Activators of Mitochondrial Fusion; note: nearly all actives have a fitted effect of over 45% in size
Conditions: S. cerevisiae fusion-defective mutant growth rescue, CellTiterGlo 48 h; series mostly up to 46.1 µM
Summary of the method: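 Yeast fusion mutant, YPEG (non-fermentable carbon), compound, 48 h at 37C non-permissive; CellTiterGlo added, 10 min RT, luminescence read. Rescued growth = division inhibition.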
Potency is the fitted concentration of half-maximal effect.

Row | Structure (SMILES) | Potency
1 | Cn1cnnc1Sc1ccc(/C=C/C(=O)c2ccc(O)cc2)cc1[N+](=O)[O-] | inactive
2 | N[C@H](C(=O)O)c1cc(O)cc(O)c1 | inconclusive: 0.58 µM [activator, full curve, poor fit]
3 | COc1ccc(NS(=O)(=O)c2ccc(N3CCCCC3)c(N)c2)cc1 | inconclusive: 25.1 µM [activator, single point]
4 | Cc1ccc(-c2cc(C(=O)N/N=C/C=C/c3ccccc3)n[nH]2)o1 | inconclusive: 10 µM [activator, partial curve]
5 | CCCCCCc1cc2cc(C(=O)OCC)c(=O)oc2cc1O | inconclusive: 3.16 µM [activator, partial curve]
6 | CNC(=S)NNC(=O)c1oc2nc(-c3ccccc3)cc(-c3ccco3)c2c1N | inconclusive: 5.62 µM [activator, single point]
7 | Cc1cc2c(cc1Cl)N(C(=O)Nc1ccnc3ccccc13)CC2 | inconclusive: 2.59 µM [activator, full curve]
8 | COc1ccc(CCNc2cc(C)nc3c(-c4ccccc4)cnn23)cc1OC | inconclusive: 11.2 µM [activator, partial curve]
9 | CCc1cc(Cn2nc(-c3ccccc3)cc2C(=O)NCC2CC2)on1 | inactive
10 | Cc1ccc(CN2CC(C(=O)N3CCN(c4ccccc4Cl)CC3)CC2=O)cc1 (stereo not drawn) | inactive
11 | NC(=S)N/N=C1\CC(c2ccc3c(c2)OCCO3)Oc2ccc(F)cc21 (stereo not drawn) | inactive
12 | C/C=C/c1ccc(OCCOc2cccc3cccnc23)c(OC)c1 | inconclusive: 25.1 µM [activator, single point]
13 | CCC(C)(C)n1nnnc1C(c1cccs1)N1CCN(c2nc3ccccc3s2)CC1 (stereo not drawn) | active: 10 µM
14 | C=CCn1c(-c2cccc([N+](=O)[O-])c2)n[nH]c1=S | inactive
15 | COc1ccc([C@H]2CC(=O)C=C(c3ccc(Cl)cc3C)C2)cc1 | inconclusive: 25.1 µM [activator, single point]
16 | Cc1ccccc1OCC(=O)NNC=O | inactive
17 | CCOc1ccc(CCNC(=O)C2=C(C)C(=O)OC23CCCCC3)cc1OCC | inconclusive: 17.8 µM [activator, partial curve]
18 | CC1(C)CC(=O)N(Cc2ccccc2)C(=O)C1 | inconclusive: 12.6 µM [activator, partial curve]
19 | O=C(COC(=O)c1c2c(nc3ccccc13)CCCC2)c1ccc(Br)s1 | inconclusive: 12.6 µM [activator, partial curve]
20 | Cc1c(Cl)cccc1NC(=S)NCC(c1cccnc1)N(C)C (stereo not drawn) | inconclusive: 35.5 µM [activator, single point]
21 | COc1ccc(-c2cc(C(=O)Nc3c(C)n(C)n(-c4ccccc4)c3=O)no2)cc1 | inconclusive: 35.5 µM [activator, single point]
22 | COc1ccc2nc(-c3ccccc3)cc(C(=O)OCC(=O)N3CCCCC3)c2c1 | inconclusive: 22.4 µM [activator, single point]
23 | O=C(CCc1[nH]c2ccccc2c1Sc1ccccc1)NCCO | inconclusive: 15.8 µM [activator, partial curve]
24 | O=C(Nc1ccncc1)c1ccc(S(=O)(=O)Nc2ccccc2)cc1 | inconclusive: 11.2 µM [activator, partial curve, poor fit]
25 | CC1CC(C)CN(C(=O)C(NS(=O)(=O)c2ccc(Br)s2)c2ccccc2)C1 (stereo not drawn) | inconclusive: 22.4 µM [activator, single point]

Row | Structure (SMILES) | Potency
26 | COC(=O)c1ccc(COc2cc([N+](=O)[O-])cc3cccnc23)cc1 | inconclusive: 25.1 µM [activator, single point]
27 | Cc1ccc(OCCOCCN2CCN(C)CC2)c([N+](=O)[O-])c1 | inactive
28 | O=C(Nc1ccccc1)c1cccnc1NCCc1ccccc1 | inconclusive: 22.4 µM [activator, single point]
29 | COc1cccc(-c2csc(N3CCN(C(=O)Nc4ccccc4Cl)CC3)n2)c1 | inconclusive: 17.8 µM [activator, partial curve]
30 | COc1cccc(NC(=O)CSC(N)=O)c1 | inconclusive: 20 µM [activator, single point]
31 | CC(C)(C)n1ncc2c(=O)n(Cc3c(Cl)cccc3Br)cnc21 | inconclusive: 12.6 µM [activator, single point]
32 | O=C(Nc1cccc(-c2cnc3ccccc3n2)c1)c1ccco1 | inconclusive: 12.6 µM [activator, partial curve]
33 | O=C(NN1CCOCC1)c1cc(Cl)ccc1Cl | inactive
34 | Cc1ccc(S(=O)(=O)Nc2ccsc2C#N)cc1 | inconclusive: 11.2 µM [activator, partial curve]
35 | O=c1cc(-c2ccccc2)nc2c(-c3ccccc3)c(C(F)(F)F)[nH]n12 | inactive
36 | O=C(NNC(=O)C12CC3CC(CC(C3)C1)C2)[C@@H]1C[C@H]1c1ccccc1 | inactive
37 | CC1=C(C(=O)OCc2ccccc2)C(/C=C/c2ccccc2)NC(=S)N1 (stereo not drawn) | active: 15.8 µM
38 | O=C(COC(=O)CC(c1ccccc1)c1ccccc1)Nc1cccc(F)c1 | inconclusive: 22.4 µM [activator, single point]
39 | COc1cc(/C=C/C(=O)OCC(=O)NCCC2=CCCCC2)ccc1O | inconclusive: 35.5 µM [activator, single point]
40 | COc1ccccc1/C=N/NC(=O)c1ccc2c(c1)OCO2 | inactive
41 | Cc1cc(C)n(-c2ccc(NC(=O)C3CCCCN3C(=O)c3occc3C)cc2)n1 (stereo not drawn) | inactive
42 | COc1ccc(SC[C@H](Cc2ccccc2)N2CC[C@@H](C)CCC2=O)cc1 | inconclusive: 20 µM [activator, single point]
43 | O=C(CSc1ccc(F)cc1)NC1CCCCC1 | inactive
44 | ON=C1/C(=N\O)CC2(C/C1=N/O)OCCO2 | inconclusive: 2.82 µM [activator, single point]
45 | COc1ccc(C2=Nn3c(nnc3-c3ccc(OC)cc3)SC2)cc1 | inconclusive: 14.1 µM [activator, partial curve]
46 | O=c1c2cnn(-c3ccccc3)c2nc(-c2cccs2)n1-c1cccc(Cl)c1 | inconclusive: 10 µM [activator, partial curve]
47 | O=C(COC(=O)Cc1ccc(Cl)cc1)NCc1ccc(F)cc1 | inactive
48 | O=C(NCCNC(=O)c1ccc(Br)o1)c1cccnc1 | inactive
49 | COCC(C)NC(=O)c1cc(-c2cccc(OC)c2)on1 (stereo not drawn) | inactive
50 | O=C1CC(c2cccc(Cl)c2)CC(O)=C1C=NC1CCCC1 (stereo not drawn) | inconclusive: 35.5 µM [activator, single point]

Row | Structure (SMILES) | Potency
51 | O=C(NCc1ccccc1)c1ccc(-c2ccccc2C(F)(F)F)o1 | inconclusive: 35.5 µM [activator, single point]
52 | CN1C2C=C(N(CCc3ccccc3)C(=O)c3ccc(Cl)cc3)CC1CC2 (stereo not drawn) | inactive
53 | CCOc1ccc(C(=O)O/N=C(\N)c2ccccn2)cc1 | inactive
54 | CC(=O)Nc1ncc(Cc2cc(Cl)ccc2Cl)s1 | inconclusive: 2.82 µM [activator, full curve, poor fit]
55 | COc1ccc([C@H]2CC(=O)C=C(c3cccc(C(F)(F)F)c3)C2)cc1 | inconclusive: 3.16 µM [activator, single point]
56 | CCOC(=O)c1ccc2[nH]c(C)cc(=O)c2c1 | inactive
57 | CC(=O)NCc1ccc(C(=O)CSc2nnc(-c3ccncc3)n2Cc2ccccc2)o1 | inactive
58 | Cc1ccc(C(=O)Nc2ccc(S(=O)(=O)N3CCc4ccccc4C3)cc2)o1 | inconclusive: 14.1 µM [activator, partial curve]
59 | Cn1c(=O)c2c(SCC(=O)N3CCOCC3)nc(CC(C)(C)C)nc2n(C)c1=O | inactive
60 | COc1cc(OC)cc(-c2nnc(SCC(=O)N(Cc3ccccc3)C(C)(C)C)o2)c1 | inconclusive: 12.6 µM [activator, partial curve]
61 | CC(=O)c1ccc(NC(=O)CC23CC4CC(C2)CC(n2nnc(C)n2)(C4)C3)cc1 | inconclusive: 22.4 µM [activator, single point]
62 | CN(C(=S)NC1CCCCC1)C1(c2ccccc2Cl)CCCCC1=O (stereo not drawn) | active: 20 µM
63 | CCc1ccc(OCC(=O)N/N=C/c2cc([N+](=O)[O-])ccc2N2CCOCC2)cc1 | inconclusive: 28.2 µM [activator, single point]
64 | O=c1c2cc(F)ccc2[nH]c(=S)n1CCCN1CCOCC1 | inactive
65 | CCOC(=O)c1cc(-c2ccccc2)sc1NC(=O)C(C)Sc1nnnn1C (stereo not drawn) | inconclusive: 6.31 µM [activator, partial curve]
66 | Cc1nnc(NC(=O)c2ccc3c(c2)NC(=O)CS3)s1 | inactive
67 | COc1ccccc1N(C)S(=O)(=O)c1ccc(C(=O)Nc2ccc(C)cc2C)cc1 | inconclusive: 12.6 µM [activator, single point]
68 | COc1cc(SC)ccc1C(=O)NCCOc1ccc(C)c(C)c1 | inconclusive: 25.1 µM [activator, single point]
69 | O=C(OCc1ccc(Br)cc1)c1cnc(Cl)c(Cl)c1 | inconclusive: 35.5 µM [activator, single point]
70 | CCn1c(SCC(=O)c2ccccc2)nc2ccccc2c1=O | inconclusive: 11.2 µM [activator, partial curve]
71 | Cc1cc(SCC(=O)c2ccc(Cl)cc2)nc(=O)[nH]1 | inconclusive: 8.91 µM [activator, partial curve]
72 | CCC(C)c1ccc(NC(=O)c2c([N+](=O)[O-])cnn2CC)cc1 (stereo not drawn) | inactive
73 | COc1ccccc1N1CCN(S(=O)(=O)c2ccc3nc(-c4ccccc4)[nH]c3c2)CC1 | inconclusive: 35.5 µM [activator, single point]
